Results on 17 compounds are retold here after PubChem BioAssay AID445 (National Center for Advancing Translational Sciences (NCATS), 2006).

Each structure is given as a SMILES string. The list shows a part of the results. These are further read-outs of the screen, such as a control signal, another cell line or another target. No call is given for them. Compounds called inactive in the main read-out are mostly missing here. The note in brackets gives the kind of curve behind each potency; many fits are weak.

A short description of the experiment: IkB Signaling. The note with it: ABC-DLBCL IkBa-CBG/CBR dual luciferase ratio (green luciferase fused to IkBa over red control in OCI-Ly3 lymphoma cells), 4 h; measured here: control luc red channel unless noted. In short, it runs like this:
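Curves were fitted separately to fusion (green), unfused (red) and ratio luminescence, then classed by r2, magnitude and activity. Cells: OCI-Ly3, 4 h compound plus doxycycline at 37C; 10 uM MG-132 defined full response.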
With `COc1ccc(N(Cc2cccs2)C(=O)COc2cccc(C)c2C)cc1`, the AC50 is 12.6 µM [falling, partial curve].
For the compound `O=C1CC(c2ccc3c(c2)OCO3)c2cc3c(cc2N1)OCO3` (configuration not stated), the AC50 is 15.8 µM [falling, partial curve].
The figure for `CCOc1ccc(-n2ccnc2SCC(=O)Nc2cccc3ccccc23)cc1` is 39.8 µM [falling, single point]; for `Cc1cccc(CC(=O)N2CC(=O)Nc3ccc(C)cc3C2c2ccc(F)cc2)c1` (configuration not stated) it is 15.8 µM [falling, partial curve]; for `COc1ccc(N2C(=O)CSC23C(=O)N(Cc2cccc(C(F)(F)F)c2)c2ccccc23)cc1` (configuration not stated) it is 25.1 µM [falling, single point].
As for `Cc1ccc(Nc2c3c(nc4nc(-c5cccs5)nn24)CCCC3)cc1F`, the half-maximal activity concentration (AC50) was 39.8 µM [falling, single point].
The result for `Cc1oc(-c2ccc(Cl)cc2)nc1CS(=O)CC(=O)NCCc1ccccc1` (configuration not stated) reads 39.8 µM [falling, single point]; that for `Oc1ccc(Cl)cc1Cc1cc(Cl)cc(Cc2cc(Cl)ccc2O)c1O`, 3.16 µM [falling, partial curve]; that for `Cc1ccc(S(=O)(=O)c2nc(-c3cccs3)oc2SCC(=O)Nc2cc(C)cc(C)c2)cc1`, 10 µM [falling, partial curve].
The figure for `CCOC(=O)c1ccccc1NC1c2ccccc2C(=O)N1C1CCN(C(=O)OCC)CC1` (configuration not stated) is 25.1 µM [falling, partial curve]; for `COc1ccccc1-c1nc(C#N)c(N2CCN(Cc3ccccc3)CC2)o1` it is 25.1 µM [falling, partial curve].
For the compound `Cc1cccc(Cn2c(=O)n(CCCC(=O)NCc3ccccc3Cl)c(=O)c3ccccc32)c1`, the AC50 is 10 µM [falling, partial curve].
The figure for `Cc1ccc(NC(=O)C2CCC(CNS(=O)(=O)c3ccc4c(c3)CCCC(=O)N4)CC2)cc1F` (configuration not stated) is 20 µM [falling, single point]; for `COCCNc1nc2c(c(=O)n(Cc3cccc(Cl)c3)c(=O)n2C)n1C` it is 31.6 µM [falling, partial curve].
The result for `COc1ccc(OCC(=O)Nc2c(C(=O)N3CCN(c4ccccc4)CC3)oc3ccccc23)cc1` reads 10 µM [falling, partial curve, poor fit]; that for `Brc1ccc2ncnc(Nc3ccc(N4CCOCC4)cc3)c2c1`, 6.31 µM [falling, partial curve].
The figure for `CCCCN1CCCc2cc(CN(CCCN3CCOCC3)C(=O)Nc3ccc(CC)cc3)ccc21` is 10 µM [falling, partial curve].
